These are yes or no findings as the source states them, for the method shown. Binding seen in cells or lysates may run through a third protein. Here binding means that the protein was enriched with, or labelled near, the bait; the list need not be complete. Where a sequence is shown, tags or fusion partners need not be part of it.
biological target: T1, GFP-tagged LNX1p80 (Ligand of Numb protein X1, p80 isoform) (mouse) (UniProt O70263); assay: affinity purification with mass spectrometry; GFP-LNX1p80 complexes purified on magnetic GFP-Trap beads from stably transfected HEK 293 cells; gel slices, nano-LC MS/MS; proteins also found with GFP alone removed; Mascot protein score cut-off 70
T1 sequence: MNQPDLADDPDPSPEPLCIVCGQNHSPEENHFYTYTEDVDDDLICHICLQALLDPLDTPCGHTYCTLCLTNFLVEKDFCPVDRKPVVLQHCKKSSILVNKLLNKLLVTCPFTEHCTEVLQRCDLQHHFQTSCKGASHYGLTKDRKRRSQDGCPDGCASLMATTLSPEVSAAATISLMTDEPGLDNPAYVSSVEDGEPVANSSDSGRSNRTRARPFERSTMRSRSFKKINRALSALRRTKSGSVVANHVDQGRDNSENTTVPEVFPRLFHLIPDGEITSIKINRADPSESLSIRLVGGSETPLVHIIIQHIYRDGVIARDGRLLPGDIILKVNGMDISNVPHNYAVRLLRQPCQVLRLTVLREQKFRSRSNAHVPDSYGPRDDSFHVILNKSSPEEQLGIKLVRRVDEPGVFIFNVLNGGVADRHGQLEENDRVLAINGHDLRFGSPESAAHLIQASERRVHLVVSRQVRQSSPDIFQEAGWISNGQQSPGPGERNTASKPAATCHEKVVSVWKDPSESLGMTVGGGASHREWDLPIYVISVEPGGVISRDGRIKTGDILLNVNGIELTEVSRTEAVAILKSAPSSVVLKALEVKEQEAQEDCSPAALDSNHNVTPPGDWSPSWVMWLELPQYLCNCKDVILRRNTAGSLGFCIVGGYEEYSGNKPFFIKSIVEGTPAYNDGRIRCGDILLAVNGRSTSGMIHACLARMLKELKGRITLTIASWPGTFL

Sequences of proteins named here, by UniProt entry; tags and fusion partners are left off.
UniProt O75145: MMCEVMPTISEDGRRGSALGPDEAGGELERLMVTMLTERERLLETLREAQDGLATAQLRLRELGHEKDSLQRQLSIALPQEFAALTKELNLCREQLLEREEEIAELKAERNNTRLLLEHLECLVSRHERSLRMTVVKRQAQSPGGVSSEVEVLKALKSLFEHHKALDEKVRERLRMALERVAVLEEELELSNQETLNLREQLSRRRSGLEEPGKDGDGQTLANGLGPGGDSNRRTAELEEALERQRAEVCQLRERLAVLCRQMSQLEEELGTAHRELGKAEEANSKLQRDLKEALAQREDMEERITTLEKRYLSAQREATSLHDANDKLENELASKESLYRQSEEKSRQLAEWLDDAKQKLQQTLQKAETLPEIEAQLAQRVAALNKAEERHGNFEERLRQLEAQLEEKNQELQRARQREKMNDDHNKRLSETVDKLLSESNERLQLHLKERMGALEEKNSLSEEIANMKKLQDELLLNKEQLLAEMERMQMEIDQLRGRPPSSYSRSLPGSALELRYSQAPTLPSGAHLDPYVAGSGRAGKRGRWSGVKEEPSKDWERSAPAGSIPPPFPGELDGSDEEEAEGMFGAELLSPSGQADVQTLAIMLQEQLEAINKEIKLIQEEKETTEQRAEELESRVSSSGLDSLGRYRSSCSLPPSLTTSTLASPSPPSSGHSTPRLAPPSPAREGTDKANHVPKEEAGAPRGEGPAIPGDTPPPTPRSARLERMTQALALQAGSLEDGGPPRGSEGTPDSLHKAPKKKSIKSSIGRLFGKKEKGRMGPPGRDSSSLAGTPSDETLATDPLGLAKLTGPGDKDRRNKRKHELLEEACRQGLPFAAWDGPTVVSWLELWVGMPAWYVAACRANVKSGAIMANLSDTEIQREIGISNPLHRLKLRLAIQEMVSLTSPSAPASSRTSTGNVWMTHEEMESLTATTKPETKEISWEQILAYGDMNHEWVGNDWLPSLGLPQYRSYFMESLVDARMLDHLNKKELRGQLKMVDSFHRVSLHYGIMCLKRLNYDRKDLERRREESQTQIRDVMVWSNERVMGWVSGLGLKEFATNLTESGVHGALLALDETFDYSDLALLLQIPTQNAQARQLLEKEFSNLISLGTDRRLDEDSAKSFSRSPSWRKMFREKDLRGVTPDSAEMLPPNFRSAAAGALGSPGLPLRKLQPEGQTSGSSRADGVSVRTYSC
UniProt Q96CW1: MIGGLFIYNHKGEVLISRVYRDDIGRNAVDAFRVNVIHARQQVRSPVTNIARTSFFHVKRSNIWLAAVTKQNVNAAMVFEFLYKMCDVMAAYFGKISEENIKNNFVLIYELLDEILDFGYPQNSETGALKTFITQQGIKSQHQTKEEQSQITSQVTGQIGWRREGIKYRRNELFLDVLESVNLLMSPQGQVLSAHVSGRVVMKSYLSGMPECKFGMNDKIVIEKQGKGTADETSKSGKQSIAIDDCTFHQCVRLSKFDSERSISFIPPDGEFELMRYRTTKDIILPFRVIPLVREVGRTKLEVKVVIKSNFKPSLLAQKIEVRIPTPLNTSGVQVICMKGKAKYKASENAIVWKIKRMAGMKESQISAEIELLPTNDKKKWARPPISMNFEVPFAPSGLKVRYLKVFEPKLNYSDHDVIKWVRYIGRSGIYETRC
UniProt Q8TBF4: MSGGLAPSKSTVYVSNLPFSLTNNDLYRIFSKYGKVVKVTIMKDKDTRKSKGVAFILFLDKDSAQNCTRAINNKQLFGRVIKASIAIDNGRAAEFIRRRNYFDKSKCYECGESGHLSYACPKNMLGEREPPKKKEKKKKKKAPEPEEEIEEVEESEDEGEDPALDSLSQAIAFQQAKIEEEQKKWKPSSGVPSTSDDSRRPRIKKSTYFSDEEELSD
UniProt O75592: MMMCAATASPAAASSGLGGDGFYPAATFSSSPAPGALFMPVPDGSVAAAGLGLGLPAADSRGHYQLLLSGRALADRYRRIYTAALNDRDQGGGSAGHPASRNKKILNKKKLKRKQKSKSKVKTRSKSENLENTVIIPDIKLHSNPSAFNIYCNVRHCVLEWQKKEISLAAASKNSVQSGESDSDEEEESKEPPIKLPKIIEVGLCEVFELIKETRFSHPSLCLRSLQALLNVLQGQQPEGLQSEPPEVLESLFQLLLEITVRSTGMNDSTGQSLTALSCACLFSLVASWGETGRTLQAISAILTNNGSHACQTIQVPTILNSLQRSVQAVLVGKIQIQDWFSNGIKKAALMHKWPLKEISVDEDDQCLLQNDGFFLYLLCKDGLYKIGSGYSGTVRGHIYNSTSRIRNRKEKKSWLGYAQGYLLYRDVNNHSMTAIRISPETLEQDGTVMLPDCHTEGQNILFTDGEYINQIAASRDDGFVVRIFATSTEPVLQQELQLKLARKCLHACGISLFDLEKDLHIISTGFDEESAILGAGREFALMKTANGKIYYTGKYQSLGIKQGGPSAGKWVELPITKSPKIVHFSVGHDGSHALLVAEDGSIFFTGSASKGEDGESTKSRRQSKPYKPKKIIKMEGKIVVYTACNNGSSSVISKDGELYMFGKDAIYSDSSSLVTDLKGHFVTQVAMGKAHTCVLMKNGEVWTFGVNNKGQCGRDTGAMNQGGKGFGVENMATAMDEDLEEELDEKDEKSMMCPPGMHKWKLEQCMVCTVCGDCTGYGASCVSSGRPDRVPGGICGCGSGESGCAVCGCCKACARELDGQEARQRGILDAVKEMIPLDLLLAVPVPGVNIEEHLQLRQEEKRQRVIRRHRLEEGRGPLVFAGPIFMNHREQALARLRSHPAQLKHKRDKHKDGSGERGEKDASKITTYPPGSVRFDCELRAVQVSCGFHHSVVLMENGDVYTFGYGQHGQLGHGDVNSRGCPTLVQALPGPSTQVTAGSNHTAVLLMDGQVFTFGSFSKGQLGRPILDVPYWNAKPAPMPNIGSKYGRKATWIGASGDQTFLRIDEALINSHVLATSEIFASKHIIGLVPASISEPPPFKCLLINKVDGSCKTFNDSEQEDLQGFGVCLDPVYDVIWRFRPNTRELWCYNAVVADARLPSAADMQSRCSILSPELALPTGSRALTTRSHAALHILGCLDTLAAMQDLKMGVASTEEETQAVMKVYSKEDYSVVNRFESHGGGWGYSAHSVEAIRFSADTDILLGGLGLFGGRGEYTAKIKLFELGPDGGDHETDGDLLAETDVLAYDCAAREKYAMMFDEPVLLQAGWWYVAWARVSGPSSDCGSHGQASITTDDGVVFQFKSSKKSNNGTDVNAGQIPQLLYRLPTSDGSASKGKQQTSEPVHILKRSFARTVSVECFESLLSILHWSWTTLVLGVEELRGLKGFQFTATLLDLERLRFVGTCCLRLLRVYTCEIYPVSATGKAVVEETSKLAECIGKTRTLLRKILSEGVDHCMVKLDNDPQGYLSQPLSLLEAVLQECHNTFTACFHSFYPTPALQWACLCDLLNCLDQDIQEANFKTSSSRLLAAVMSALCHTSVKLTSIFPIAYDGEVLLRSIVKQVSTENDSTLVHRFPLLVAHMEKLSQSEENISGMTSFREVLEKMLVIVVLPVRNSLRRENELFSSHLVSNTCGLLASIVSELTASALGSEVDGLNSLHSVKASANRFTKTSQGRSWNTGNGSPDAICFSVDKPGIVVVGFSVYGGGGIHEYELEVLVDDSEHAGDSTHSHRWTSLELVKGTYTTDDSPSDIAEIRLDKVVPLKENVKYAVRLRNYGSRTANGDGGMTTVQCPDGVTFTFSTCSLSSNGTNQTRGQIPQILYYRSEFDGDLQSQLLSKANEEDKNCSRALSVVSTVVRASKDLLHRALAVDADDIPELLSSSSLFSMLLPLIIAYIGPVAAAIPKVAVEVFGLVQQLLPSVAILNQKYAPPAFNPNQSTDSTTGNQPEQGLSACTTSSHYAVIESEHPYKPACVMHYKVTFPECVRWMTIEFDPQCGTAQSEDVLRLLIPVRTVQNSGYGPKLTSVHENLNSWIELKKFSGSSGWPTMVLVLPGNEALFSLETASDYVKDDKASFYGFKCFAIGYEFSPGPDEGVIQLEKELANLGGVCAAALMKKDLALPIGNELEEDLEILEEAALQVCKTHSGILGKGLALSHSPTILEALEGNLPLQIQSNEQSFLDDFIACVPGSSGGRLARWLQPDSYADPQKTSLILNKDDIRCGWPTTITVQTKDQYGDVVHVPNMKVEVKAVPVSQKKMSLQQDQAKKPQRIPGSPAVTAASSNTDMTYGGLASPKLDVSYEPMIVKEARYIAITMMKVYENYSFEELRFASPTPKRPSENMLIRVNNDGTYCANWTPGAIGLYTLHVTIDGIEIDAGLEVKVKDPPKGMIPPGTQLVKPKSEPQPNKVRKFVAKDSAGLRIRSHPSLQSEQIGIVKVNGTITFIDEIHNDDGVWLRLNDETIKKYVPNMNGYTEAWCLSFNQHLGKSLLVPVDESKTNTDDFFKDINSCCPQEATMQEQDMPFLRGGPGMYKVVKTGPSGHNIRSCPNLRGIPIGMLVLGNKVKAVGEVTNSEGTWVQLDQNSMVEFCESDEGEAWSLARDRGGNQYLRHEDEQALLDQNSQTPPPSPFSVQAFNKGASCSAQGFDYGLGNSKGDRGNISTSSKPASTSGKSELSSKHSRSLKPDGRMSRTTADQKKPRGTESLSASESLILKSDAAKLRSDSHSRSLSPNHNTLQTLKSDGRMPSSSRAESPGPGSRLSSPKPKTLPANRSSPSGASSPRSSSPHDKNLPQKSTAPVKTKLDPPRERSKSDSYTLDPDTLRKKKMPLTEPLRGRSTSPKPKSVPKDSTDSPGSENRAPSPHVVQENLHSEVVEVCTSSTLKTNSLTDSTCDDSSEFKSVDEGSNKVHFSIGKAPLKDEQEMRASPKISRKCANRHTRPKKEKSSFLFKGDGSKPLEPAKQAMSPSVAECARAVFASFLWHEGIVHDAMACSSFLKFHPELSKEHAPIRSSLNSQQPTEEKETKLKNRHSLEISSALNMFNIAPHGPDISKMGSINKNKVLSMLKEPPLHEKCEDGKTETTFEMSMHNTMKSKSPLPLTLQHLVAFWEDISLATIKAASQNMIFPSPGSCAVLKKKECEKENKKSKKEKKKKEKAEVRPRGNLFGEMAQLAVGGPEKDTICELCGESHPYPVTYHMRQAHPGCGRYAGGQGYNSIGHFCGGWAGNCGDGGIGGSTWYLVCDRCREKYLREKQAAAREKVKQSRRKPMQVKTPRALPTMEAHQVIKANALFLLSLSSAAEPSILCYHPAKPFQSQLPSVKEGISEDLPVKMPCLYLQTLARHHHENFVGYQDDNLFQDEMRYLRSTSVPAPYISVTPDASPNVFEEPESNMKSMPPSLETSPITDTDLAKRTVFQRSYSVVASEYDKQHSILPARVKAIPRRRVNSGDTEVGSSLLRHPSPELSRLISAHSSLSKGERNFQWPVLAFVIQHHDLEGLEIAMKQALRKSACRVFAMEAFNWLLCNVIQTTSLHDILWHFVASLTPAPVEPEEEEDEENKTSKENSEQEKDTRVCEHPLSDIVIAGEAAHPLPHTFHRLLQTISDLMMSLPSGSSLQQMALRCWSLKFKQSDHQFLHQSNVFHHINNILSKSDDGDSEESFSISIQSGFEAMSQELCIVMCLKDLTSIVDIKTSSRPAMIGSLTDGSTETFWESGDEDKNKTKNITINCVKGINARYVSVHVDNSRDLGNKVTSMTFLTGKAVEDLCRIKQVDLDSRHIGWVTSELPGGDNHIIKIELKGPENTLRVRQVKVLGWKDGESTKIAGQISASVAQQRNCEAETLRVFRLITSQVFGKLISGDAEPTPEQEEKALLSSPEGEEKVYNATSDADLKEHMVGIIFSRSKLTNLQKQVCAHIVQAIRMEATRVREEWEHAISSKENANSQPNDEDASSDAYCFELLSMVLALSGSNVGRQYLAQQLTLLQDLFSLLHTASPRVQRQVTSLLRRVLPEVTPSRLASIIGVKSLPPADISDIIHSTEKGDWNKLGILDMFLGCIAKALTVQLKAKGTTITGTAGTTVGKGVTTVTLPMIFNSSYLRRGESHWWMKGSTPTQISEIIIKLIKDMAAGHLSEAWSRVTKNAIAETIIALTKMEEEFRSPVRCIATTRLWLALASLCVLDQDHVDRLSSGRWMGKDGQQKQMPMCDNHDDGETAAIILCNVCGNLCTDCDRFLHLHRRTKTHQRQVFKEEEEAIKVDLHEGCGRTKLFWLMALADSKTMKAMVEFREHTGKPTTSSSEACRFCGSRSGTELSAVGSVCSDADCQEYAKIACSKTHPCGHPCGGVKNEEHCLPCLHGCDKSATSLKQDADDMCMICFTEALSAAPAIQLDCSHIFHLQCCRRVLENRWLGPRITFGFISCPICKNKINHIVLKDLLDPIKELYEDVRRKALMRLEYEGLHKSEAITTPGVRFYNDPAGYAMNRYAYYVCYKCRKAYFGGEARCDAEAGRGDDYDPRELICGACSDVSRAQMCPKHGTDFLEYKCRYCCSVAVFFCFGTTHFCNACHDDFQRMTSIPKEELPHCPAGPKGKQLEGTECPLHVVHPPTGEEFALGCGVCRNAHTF

binding | Substance
binds | TMED2, endogenous (from UniProt Q15363 21-201)
binds | Liprin-alpha-1 (PPFIA1), endogenous (from UniProt Q13136 1-1202)
binds | Liprin-alpha-3, endogenous (from UniProt O75145 1-1194)
binds | Zinc finger protein 24, endogenous (from UniProt P17028 1-368)
binds | Kinesin-like protein KIF14, endogenous (from UniProt Q15058 1-1648)
binds | AP-2 complex subunit mu, endogenous (from UniProt Q96CW1 1-435)
binds | Ras GTPase-activating-like protein IQGAP1, endogenous (from UniProt P46940 1-1657)
binds | Chromodomain-helicase-DNA-binding protein 2, endogenous (human (endogenous in HEK 293))
binds | A-kinase anchor protein 13, endogenous (human (endogenous in HEK 293))
binds | SRGAP2, endogenous (from UniProt O75044 1-1071)
binds | Zinc finger CCHC-type and RNA-binding motif-containing protein 1, endogenous (from UniProt Q8TBF4 1-217)
binds | ERC1, endogenous (from UniProt Q8IUD2 1-1116)
binds | AP-2 complex subunit alpha-1, endogenous (from UniProt O95782-2 1-955)
binds | Probable ubiquitin carboxyl-terminal hydrolase FAF-X, endogenous (human (endogenous in HEK 293))
binds | Probable E3 ubiquitin-protein ligase MYCBP2, endogenous (from UniProt O75592 1-4678)
binds | Leucyl-tRNA synthetase, cytoplasmic, endogenous (from UniProt Q9P2J5 1-1176)
binds | Serine/threonine-protein phosphatase PP1-alpha catalytic subunit isoform 3, endogenous (human (endogenous in HEK 293))

— publication PMC5679597
